# According to PubChem BioAssay AID493014 (National Center for Advancing Translational Sciences (NCATS), 2011):
# Hit rate of the full screen: of about 340,000 compounds, about 170 (0.05%) were called active. This list was built around the results that the source calls inconclusive (neither active nor inactive); the mix of calls is not that of the screen. Calls come from the whole dose curve; as a rule, active = well fitted inhibition curve with a large enough effect in the signal ratio, with a control signal flat (not every such curve was filed as active); inconclusive = small, poorly fitted or top-dose-only effect, or effect the other way, or a change in a side signal; inactive = flat fitted curve, though single readings scatter; the % refers to the signal ratio. Potencies beside an inconclusive call are fits to weak or partial responses and may not hold up.
# Experiment: qHTS Assay to Find Inhibitors of Chronic Active B-Cell Receptor Signaling;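 for activity change, negative = inhibition: plate controls were basal doxycycline-induced cells for no effect and cells given 10 µM MG132 for full effect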
# Details: ABC-DLBCL IkBa-CBG/CBR reporter, luminescence ratio (green luciferase fused to IkBa over red control in TMD8 lymphoma cells), 4 h; activity change, negative = inhibition: at 46.1 µM (top of the series) unless noted
# Outline: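 Concentration-response series (up to 46 uM) were applied to TMD8 dual-reporter cells for 4 h at 37C with doxycycline. Green/red ratio, after filter-overlap correction, defined %Activity; red signal alone was normalised to basal cells and zero luminescence.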
# Potency is the fitted concentration of half-maximal effect.
Structure (SMILES),"activity change, negative = inhibition",Potency
Cc1cc(=O)oc2cc(OCC(=O)N3CCN(C(=O)C4COc5ccccc5O4)CC3)c(Cl)cc12 (stereo not drawn),inactive,–
Cc1nc(NC(=S)NC(=O)c2ccccc2)sc1C,–,"inconclusive: 4.47 µM [falling, single point]"
O=C(c1cccs1)c1ccc(-c2cccs2)s1,–,"inconclusive: 31.6 µM [rising, single point]"
COc1ccccc1N(CC(=O)NCc1ccccn1)S(C)(=O)=O,inconclusive: -0.191%,–
COC(=O)c1cc(NC2(c3ccccc3)C(=O)c3ccccc3C2=O)cc(C(=O)OC)c1,inactive,–
Cc1ccc(C(=O)NNC(=O)CSc2nnc3c(n2)[nH]c2ccc(C)cc23)cc1,inactive,–
Cc1cccc(CSc2nnnn2-c2ccccc2)c1,inconclusive: 15.4%,–
O=C(NCC1COc2ccccc2O1)c1cccs1 (stereo not drawn),inconclusive: 9.66%,–
CC(C)=C1C2CCC1C1C(=O)N(c3nc(-c4ccccc4)c(C)s3)C(=O)C21 (stereo not drawn),inconclusive: 7.83%,–
CCN(C(=O)CSc1nccc(=O)[nH]1)c1cccc2ccccc12,inactive,–
CCOC(=O)C1=C(CN2CCOCC2)NC(=O)NC1c1cccc([N+](=O)[O-])c1 (stereo not drawn),inactive,–
O=C(c1ccc(Br)s1)N1CCN(c2ncccn2)CC1,inconclusive: 3.75%,–
COc1ccc(NC(=O)c2ccc(NC(=O)C3CC3)cc2)cc1,inconclusive: -1.05%,–
CCCn1nc(C(=O)Nc2ccc3c(c2)OCCO3)c2ccccc2c1=O,inconclusive: -11.6%,–
CN(CC(=O)O/N=C(\N)c1ccccn1)S(=O)(=O)c1ccccc1,–,"inconclusive: 20 µM [falling, partial curve, poor fit]"
O=C(CN1CCN(C2CCCCC2)CC1)Nc1ccccc1-c1ccccc1,inconclusive: 1.31%,–
CC1CC(C)CN(CCCNC(=O)c2ccc3c(c2)N(Cc2ccccc2)C(=O)c2ccccc2S3=O)C1 (stereo not drawn),inconclusive: -9.44%,–
Cc1ccc(-c2csc(C3=C(O)CN(NC(=O)c4ccco4)C3=N)n2)cc1,inconclusive: 10.8%,–
C/C(=N\OC(=O)Nc1ccccc1)c1cnn(-c2cc(C(F)(F)F)cc(C)n2)c1C,inconclusive: -0.459%,–
CN(CC(=O)Nc1c(Cl)cccc1Cl)C(=O)C1=COCCO1,inconclusive: 11.3%,–
COc1cccc(CN2CCN(Cc3ccc(O)cc3)CC2CCO)c1 (stereo not drawn),inconclusive: 5.52%,–

# Individual results from the list.
# Entry for O=C(c1ccc(Br)s1)N1CCN(c2ncccn2)CC1 under activity change, negative = inhibition: inconclusive: 3.75%
# Entry for O=C(CN1CCN(C2CCCCC2)CC1)Nc1ccccc1-c1ccccc1 under activity change, negative = inhibition: inconclusive: 1.31%
# Entry for Cc1ccc(-c2csc(C3=C(O)CN(NC(=O)c4ccco4)C3=N)n2)cc1 under activity change, negative = inhibition: inconclusive: 10.8%
# Entry for CCN(C(=O)CSc1nccc(=O)[nH]1)c1cccc2ccccc12 under activity change, negative = inhibition: inactive
# Entry for COc1cccc(CN2CCN(Cc3ccc(O)cc3)CC2CCO)c1 (stereo not drawn) under activity change, negative = inhibition: inconclusive: 5.52%
# Entry for Cc1cccc(CSc2nnnn2-c2ccccc2)c1 under activity change, negative = inhibition: inconclusive: 15.4%

# Later entries

Structure (SMILES),"activity change, negative = inhibition",Potency
O=C(C[n+]1ccccc1)Nc1cc(C(F)(F)F)ccc1Cl,inactive,–
CN(Cc1ccccc1)C(=O)c1[nH]cnc1C(=O)Nc1ccc(Cl)cc1,inconclusive: 0.0089%,–
C/C(=N\Nc1cccc(Cl)c1)C1(C)N(O)C(C)(C)C(c2ccco2)=[N+]1[O-] (stereo not drawn),inactive,–
COc1ccccc1N1C(=O)c2cccc3c(Cl)ccc(c23)C1=O,inactive,–
CN(C)c1ccnc(-n2cccc2/C=N/OCc2ccccc2)c1C#N,inconclusive: 0.0409%,–
COc1ccc(CC(=O)O/N=C(\N)c2ccccc2)cc1OC,inconclusive: -0.66%,–
O=C(NCCc1ccc(F)cc1)C1CCCCC1,–,"inconclusive: 11.2 µM [falling, partial curve]"
COc1cc(CNn2c(C)n[nH]c2=S)cc(Cl)c1OCc1ccc(F)cc1,inconclusive: -21.1%,–
CCN1CCN(Cc2ccc(NC(=O)c3cc(NC(=O)c4cc5cccc(OC)c5o4)cc(OC)c3)cc2C(F)(F)F)CC1,–,"inconclusive: 12.6 µM [falling, partial curve]"
C/C(=N\NC(=O)C(=O)Nc1c(C)n(C)n(-c2ccccc2)c1=O)c1ccncc1,inactive,–
CC(=O)Nc1ccc(S(=O)(=O)NNC(=O)c2cccc(Cl)c2)cc1,inconclusive: -5.13%,–
COc1ccc(CCNC(=O)c2ccc3nc(-c4ccco4)c(-c4ccco4)nc3c2)cc1OC,inconclusive: 3.48%,–
O=C(CCCCCNC(=S)Nc1ccc(Cl)cc1)C[N+](=O)[O-],–,"inconclusive: 35.5 µM [rising, single point]"
O=S(=O)(/N=C/c1ccccc1O)c1cccs1,inactive,–
CC(NCCC(c1ccccc1)c1ccccc1)c1ccccc1 (stereo not drawn),inconclusive: 0.497%,–
Cc1cc(C)cc(N2C(=O)CC(N(C(=O)c3ccco3)c3cc(C)cc(C)c3)C2=O)c1 (stereo not drawn),inconclusive: -1.96%,–
O=C(Nc1ccc(Cl)cc1C(=O)NCCN1CCOCC1)c1ccc(Cl)cc1Cl,–,"inconclusive: 0.092 µM [falling, full curve]"
CCN(c1ccccc1)c1ncnc2c1cnn2-c1ccc(OC)cc1,–,"inconclusive: 1.78 µM [rising, full curve, poor fit]"
CNC(=O)c1nc(C)n(-c2ccc(Cl)cc2Cl)n1,inactive,–
CC(C)(C)c1ccc(C(=O)NCC(=O)NCC(C)(C)N2CCOCC2)cc1,inconclusive: 1.64%,–
CC(C)CC(=O)Nc1ccccc1N1CCN(C(=O)c2ccccc2)CC1,inconclusive: 0.45%,–

Structure (SMILES),"activity change, negative = inhibition",Potency
O=C(N/N=C/c1ccc(Cl)c(Cl)c1)c1ccc2nc[nH]c2c1,inconclusive: -18.4%,–
COc1ccc(-c2nc(NC(=O)Cn3ccc(C(F)(F)F)n3)sc2C)cc1,inconclusive: -3.95%,–
CC(C)C[C@H](NC(=O)c1nc[nH]c1C(=O)NCc1ccc(CNC(=O)OC(C)(C)C)cc1)C(=O)OCc1ccccc1,–,"inconclusive: 12.6 µM [rising, single point]"
CC(C)S(=O)(=O)C1=NSC2=NC(=O)/C(=C\c3ccc(-c4ccccc4)o3)C(=N)N21,inconclusive: 2.49%,–
C=CCSc1nsc(NC(=O)Nc2ccc(F)cc2)n1,inconclusive: 310%,–
CCC(CO)Oc1cc(NC(=O)c2cccc(OC)c2)c2ncn(C(C)C)c2c1 (stereo not drawn),inconclusive: -2.19%,–
CCOC(=O)C(C)Sc1nc(-c2ccco2)cc(C(F)(F)F)c1C#N (stereo not drawn),inactive,–
C#CCOC(=O)C(NC(=O)c1ccccc1)=C(C)C,inconclusive: 2.07%,–
CC(C)OCCCNc1ccc(N2C(=O)CCCC2=O)cc1[N+](=O)[O-],inconclusive: 4.29%,–
COc1ccccc1OCCCC(=O)Nc1nccs1,inconclusive: 4.99%,–
O=C1COc2ccc(C(=O)COC(=O)Cc3c(F)cccc3Cl)cc2N1,inactive,–
COc1cccc(NC(=O)CSc2nnc(Cc3cccn3C)n2-c2ccc(F)cc2)c1,inconclusive: 12.4%,–
Cc1cnc(NS(=O)(=O)c2ccc(Cl)cc2)c(Br)c1,inconclusive: -16.2%,–
COc1ccc(Nc2cc(C(=O)NCCCN3CCN(C)CC3)c3ccccc3n2)c(OC)c1,–,"inconclusive: 11.2 µM [falling, single point]"
COc1ccc(C(=O)N2CCN(S(=O)(=O)c3ccc(Cl)cc3)CC2)cc1OC,inconclusive: -20%,–
CC(C)(C)SCCNC(=O)/C=C/c1ccc(F)cc1,inconclusive: 10.8%,–
COc1cc(N)c(Cl)cc1C(=O)OCC(=O)c1ccc2c(c1)NC(=O)CO2,–,"inconclusive: 18.4 µM [falling, partial curve]"
O=S(=O)(NNc1ncc(C(F)(F)F)cc1Cl)c1ccc(F)cc1F,–,"inconclusive: 29.1 µM [falling, partial curve, poor fit]"
O=C(O)c1ccc(COc2ccc3ccccc3c2/C=C2/NC(=O)N(Cc3ccc(F)cc3)C2=O)cc1,inconclusive: -8.75%,–
CC1CCN(S(=O)(=O)c2ccc3[nH]ccc3c2)CC1,inactive,–
COc1ccc(OC)c(Nc2nc(-c3ccc(O)c(O)c3)cs2)c1,–,"inconclusive: 29.1 µM [falling, single point]"

Structure (SMILES),"activity change, negative = inhibition",Potency
CC(C)C[C@H](NC(=O)c1nc[nH]c1C(=O)NC1CCN(C(=O)OC(C)(C)C)CC1)C(=O)OCc1ccccc1,inconclusive: 27.6%,–
O=c1c2ccccc2nc(/C=C/c2c[nH]c3ccccc23)n1-c1ccc([N+](=O)[O-])cc1,inactive,–
CC(C)[C@H]1CN=C2N(C[C@H](C)NC(=O)CCC3CCCCC3)[C@H](Cc3ccc(O)cc3)CN21,inactive,–
CCOC(=O)CN/C=C(\C#N)c1ccc(F)cc1,inconclusive: -0.0305%,–
CC(C)Cn1c(=O)c2c(nc3n2CCCN3Cc2ccccc2)n(C)c1=O,inconclusive: 7.48%,–
CSCCC(NS(=O)(=O)c1ccc(C)cc1)C(=O)N1CCCCCCC1 (stereo not drawn),inactive,–
CCCCCOc1ccc(Br)cc1CSC(=N)N,inactive,–
COc1ccc(Cl)cc1NC(=O)CN1CCC(n2nnc3ccccc32)CC1,inconclusive: 20.4%,–
O=[N+]([O-])c1ccc2nc(NS(=O)(=O)c3ccc(F)cc3)sc2c1,inconclusive: 9.96%,–
O=c1[nH]c(=O)n(C2CCCO2)cc1F (stereo not drawn),inactive,–
S=C(NCc1ccccc1)NCc1ccc(Cl)cc1,inconclusive: 13.3%,–
COc1ccc(NC(=O)Cn2nnc(C(=O)NCc3ccccc3OC)c2N)cc1Cl,inconclusive: 1.63%,–
COc1cccc(NC(=O)c2ccc3c(c2)OCCO3)c1,–,"inconclusive: 22.4 µM [falling, partial curve]"
COCC(=O)N1CCC(Oc2ccc(C(=O)N3CCSCC3)cc2)CC1,inactive,–
CCOC(=O)c1c(NC(=O)C[n+]2ccc(Cc3ccccc3)cc2)sc(C)c1C,inconclusive: 8.61%,–
CCOC(=O)C1CCN(C(=O)c2cccc(N3C(=O)NC4CC3(C)Oc3ccc(C)cc34)c2)CC1 (stereo not drawn),inactive,–
NC(=O)N/N=C/c1ccc(OCc2cccc(Cl)c2)cc1,inconclusive: 10.3%,–
Cc1cc(=O)n2nc(N3CCCC(C(=O)NCc4ccc5c(c4)OCO5)C3)sc2n1 (stereo not drawn),inconclusive: 2.11%,–
O=C1c2ccccc2-c2onc3ccc(N4CCCC4)c1c23,inconclusive: 1.57%,–
O=c1[nH]c(/C=C/c2ccc(Br)cc2)nc2ccccc12,inconclusive: 4.27%,–
